Measured values reported in US20230012791A1, “Modified Plants” (Oxford University Innovation Limited, priority 2019, published 2023).
For at least one compound, name, drawing or mass did not settle the structure.

Test system: Osdot1-m2 mutant plants
Assay: Exogenous auxin treatment of Osdot1-m2 mutant seedlings
Type: in vivo, Kitaake rice (O. sativa ssp. japonica)

O=C(O)Cc1cccc2ccccc12 [NAA, naphthaleneacetic acid]
effect on vascular tissue and bulliform cells in leaf 3 (transverse sections) (0.1 μM NAA in ½ MS medium, homozygous Osdot1-m2 seedlings, narrow region in middle of leaf blade of leaf 3): triggered proliferation of vascular tissue and bulliform cells | overall seedling morphology (shoot height, root structure), mutant versus wild type (½ MS medium containing 0.1 μM NAA, grown for 7 days): No overall morphological differences
